{"source": "PubChem BioAssay AID504793 (Drosophila RNAi Screening Center, 2011)", "aim": "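Whole-genome screen for parts of the DNA damage checkpoint at G2/M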 (primary screen)", "cell system": "Drosophila S2R+ cells", "reagent": "long dsRNA against Drosophila genes, about 0.25 µg dsRNA per well", "duration": "4 days of dsRNA, then 4 hours of drug before read-out", "treatment": "doxorubicin 0.5 µM for 4 hours to cause double-strand breaks, in cells also given a low, harmless dose of dsRNA against nbs to sensitise the assay", "measured": "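Per-well count of mitotic cells stained for phospho-histone H3 after doxorubicin exposure, used as mitotic index; counts are raw and not normalised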", "direction": "mitotic cells: higher = more cells in mitosis, weaker G2 arrest", "call rule": "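Genes are called active only when high mitotic counts were reproduced with independent dsRNAs and mitosis was checked for delay without damage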", "meaning of the calls": "active = confirmed in follow-up tests; inactive = not confirmed", "note": "The screen tested about 23,000 reagents; this is an unselected part of those with a known target gene and a result. Over the whole deposit, 62 (0.27%) were called active. 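Calls come from follow-up tests whose scores are not deposited, so confirmed genes may have low counts here; counts are not normalised per plate.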 The raw values are shown without normalisation. A plus sign joins genes that one reagent is predicted to hit."}
{"target": "Axn", "dsRNA": "DRSC14120", "mitotic cells, replicate 1": 17, "Call": "inactive"}
{"target": "Axn", "dsRNA": "DRSC29423", "mitotic cells, replicate 1": 9, "Call": "inactive"}
{"target": "CG7420", "dsRNA": "DRSC00704", "mitotic cells, replicate 1": 5, "Call": "inactive"}
{"target": "mat", "dsRNA": "DRSC08376", "mitotic cells, replicate 1": 6, "Call": "inactive"}
{"target": "mat", "dsRNA": "DRSC22841", "mitotic cells, replicate 1": 20, "Call": "inactive"}
{"target": "mat", "dsRNA": "DRSC27210", "mitotic cells, replicate 1": 7, "Call": "inactive"}
{"target": "Lcp65Ab2 + Lcp65Ab1", "dsRNA": "DRSC10340", "mitotic cells, replicate 1": 5, "Call": "inactive"}
{"target": "Lcp65Ab2 + Lcp65Ab1", "dsRNA": "DRSC10343", "mitotic cells, replicate 1": 4, "Call": "inactive"}
{"target": "Lcp65Ab2 + Lcp65Ab1", "dsRNA": "DRSC29739", "mitotic cells, replicate 1": 5, "Call": "inactive"}
{"target": "CG13738", "dsRNA": "DRSC10065", "mitotic cells, replicate 1": 7, "Call": "inactive"}
{"target": "CG13738", "dsRNA": "DRSC23534", "mitotic cells, replicate 1": 8, "Call": "inactive"}
{"target": "Ssrp", "dsRNA": "DRSC04658", "mitotic cells, replicate 1": 3, "Call": "inactive"}
{"target": "Ssrp", "dsRNA": "DRSC29959", "Call": "inactive"}
{"target": "sfl", "dsRNA": "DRSC08828", "mitotic cells, replicate 1": 6, "Call": "inactive"}
{"target": "sfl", "dsRNA": "DRSC08830", "mitotic cells, replicate 1": 6, "Call": "inactive"}
{"target": "sfl", "dsRNA": "DRSC25916", "mitotic cells, replicate 1": 11, "Call": "inactive"}
{"target": "comm3", "dsRNA": "DRSC09993", "mitotic cells, replicate 1": 7, "Call": "inactive"}
{"target": "comm3", "dsRNA": "DRSC09994", "mitotic cells, replicate 1": 2, "Call": "inactive"}
{"target": "comm3", "dsRNA": "DRSC09995", "mitotic cells, replicate 1": 6, "Call": "inactive"}
{"target": "Cyp308a1", "dsRNA": "DRSC20238", "mitotic cells, replicate 1": 6, "Call": "inactive"}
{"target": "Cyp308a1", "dsRNA": "DRSC26958", "mitotic cells, replicate 1": 9, "Call": "inactive"}
{"target": "CG13699", "dsRNA": "DRSC10048", "mitotic cells, replicate 1": 4, "Call": "inactive"}
{"target": "CG13699", "dsRNA": "DRSC26349", "mitotic cells, replicate 1": 8, "Call": "inactive"}
{"target": "CG30380", "dsRNA": "DRSC05069", "mitotic cells, replicate 1": 9, "Call": "inactive"}
{"target": "CG9386", "dsRNA": "DRSC16485", "mitotic cells, replicate 1": 3, "Call": "inactive"}
{"target": "CG10151", "dsRNA": "DRSC05974", "mitotic cells, replicate 1": 10, "Call": "inactive"}
{"target": "CG10151", "dsRNA": "DRSC27429", "mitotic cells, replicate 1": 6, "Call": "inactive"}
{"target": "CG31050", "dsRNA": "DRSC13883", "mitotic cells, replicate 1": 13, "Call": "inactive"}
{"target": "Prp6", "dsRNA": "DRSC10724", "mitotic cells, replicate 1": 8, "Call": "inactive"}
{"target": "Prp6", "dsRNA": "DRSC21773", "mitotic cells, replicate 1": 10, "Call": "inactive"}
{"target": "CG14273", "dsRNA": "DRSC02377", "mitotic cells, replicate 1": 6, "Call": "inactive"}
{"target": "CG14273", "dsRNA": "DRSC27247", "mitotic cells, replicate 1": 2, "Call": "inactive"}
{"target": "CG7990", "dsRNA": "DRSC19296", "mitotic cells, replicate 1": 7, "Call": "inactive"}
{"target": "CG7990", "dsRNA": "DRSC23195", "mitotic cells, replicate 1": 6, "Call": "inactive"}
{"target": "CG7990", "dsRNA": "DRSC26580", "mitotic cells, replicate 1": 9, "Call": "inactive"}
